{"source": "PubChem BioAssay AID493014", "about": "(National Center for Advancing Translational Sciences (NCATS), 2011)", "test": "qHTS Assay to Find Inhibitors of Chronic Active B-Cell Receptor Signaling", "details": "ABC-DLBCL IkBa-CBG/CBR reporter, luminescence ratio (green luciferase fused to IkBa over red control in TMD8 lymphoma cells), 4 h", "outline": "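TMD8 ABC-DLBCL cells carrying doxycycline-inducible green luciferase fused to IkappaBalpha plus unfused red luciferase were exposed to compounds (up to 46 uM) for 4 hrs at 37C. Activity came from the overlap-corrected green/red luminescence ratio.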", "key": {"[1]": {"details": "measured here: CBR red luminescence, cell number"}, "[2]": {"details": "measured here: IkBa-CBG green luminescence"}}, "note": "Some of the results follow. Shown are side measurements of this screen, not its main read-out; they come without a call. Most of these compounds were active or inconclusive in the main read-out, so they are no random draw. The note in brackets gives the kind of curve behind each potency; many fits are weak."}
{"smiles": "COc1ccc(C(=O)Nc2cc3c(cc2Cl)OCCCO3)cc1", "values": [{"measurement": "AC50", "setting": "[1]", "result": "14.6 µM [rising, partial curve]"}, {"measurement": "AC50", "setting": "[2]", "result": "16.4 µM [falling, partial curve, poor fit]"}]}
{"smiles": "CCn1c(C(=O)NCc2ccccn2)cc2sccc21", "values": [{"measurement": "AC50", "setting": "[1]", "result": "4.11 µM [falling, full curve]"}]}
{"smiles": "CCOc1cc(/C=C2/SC(=S)NC2=O)ccc1OC(=O)c1ccco1", "values": [{"measurement": "AC50", "setting": "[1]", "result": "8.91 µM [falling, partial curve, poor fit]"}]}
{"smiles": "CCOC(=O)c1c(NC(=S)NC)sc2c1CC(C)(C)SC2", "values": [{"measurement": "AC50", "setting": "[1]", "result": "23.1 µM [falling, single point]"}, {"measurement": "AC50", "setting": "[2]", "result": "18.4 µM [rising, partial curve, poor fit]"}]}
{"smiles": "COc1c(C)cc(Br)cc1C(=O)Nc1cccc(NC(=O)c2ccco2)c1", "values": [{"measurement": "AC50", "setting": "[1]", "result": "2.06 µM [rising, partial curve, poor fit]"}]}
{"smiles": "COc1ccc2nc(NC(=O)C3CCCO3)sc2c1", "note": "(stereo not given)", "values": [{"measurement": "AC50", "setting": "[1]", "result": "8.91 µM [falling, partial curve]"}]}
{"smiles": "Cc1ncoc1C(=O)Nc1cccc(Cl)c1C", "values": [{"measurement": "AC50", "setting": "[1]", "result": "29.1 µM [falling, single point]"}]}
{"smiles": "COc1ccccc1Cc1nc(-c2ccc(C)cc2)no1", "values": [{"measurement": "AC50", "setting": "[1]", "result": "29.1 µM [falling, single point]"}]}
{"smiles": "CCn1c(=O)ccc2cc([N+](=O)[O-])ccc21", "values": [{"measurement": "AC50", "setting": "[1]", "result": "11.2 µM [rising, partial curve, poor fit]"}, {"measurement": "AC50", "setting": "[2]", "result": "22.4 µM [falling, partial curve, poor fit]"}]}
{"smiles": "Cc1ccc(OC(=O)CCc2c(C)nc3ncnn3c2C)cc1", "values": [{"measurement": "AC50", "setting": "[1]", "result": "14.6 µM [rising, partial curve, poor fit]"}]}
{"smiles": "CCC1(c2ccccc2)NC(=S)N(c2ccc(C)c(C)c2)N1", "note": "(stereo not given)", "values": [{"measurement": "AC50", "setting": "[1]", "result": "20 µM [rising, partial curve, poor fit]"}]}
{"smiles": "CCn1c(=S)sc2c(=O)n(CC(=O)Nc3cccc(Cl)c3)c(C)nc21", "values": [{"measurement": "AC50", "setting": "[1]", "result": "7.08 µM [falling, partial curve, poor fit]"}]}
{"smiles": "O=C(Cn1c(CO)nc2ccccc21)NCCc1ccc(F)cc1", "values": [{"measurement": "AC50", "setting": "[1]", "result": "0.891 µM [rising, full curve]"}]}
{"smiles": "COc1cccc(CNc2ncnc3cc(Cl)ccc23)c1", "values": [{"measurement": "AC50", "setting": "[1]", "result": "10 µM [falling, partial curve]"}]}
{"smiles": "Cc1sc(NC(=O)CSC2=NCCS2)nc1-c1ccccc1", "values": [{"measurement": "AC50", "setting": "[1]", "result": "8.2 µM [falling, partial curve, poor fit]"}]}
{"smiles": "C#CCNC(=O)C1=C[C@H](c2coc3ccccc3c2=O)C[C@H](OCCCCO)O1", "values": [{"measurement": "AC50", "setting": "[1]", "result": "0.112 µM [rising, full curve, poor fit]"}]}
{"smiles": "Cc1ccnc(NCc2ccc(Br)cc2)c1", "values": [{"measurement": "AC50", "setting": "[1]", "result": "2.51 µM [rising, full curve, poor fit]"}]}
{"smiles": "CN(C)CCn1c2c(c(SCC(=O)Nc3cccc4ccccc34)nc1=O)CCC2", "values": [{"measurement": "AC50", "setting": "[1]", "result": "7.31 µM [falling, partial curve, poor fit]"}]}
{"smiles": "CSC1CCCCC1(O)CSc1nc2c(cc1C#N)CCCC2", "note": "(stereo not given)", "values": [{"measurement": "AC50", "setting": "[1]", "result": "3.26 µM [falling, full curve]"}]}
{"smiles": "Cc1ccccc1/[N+]([O-])=C/c1ccncc1", "values": [{"measurement": "AC50", "setting": "[1]", "result": "18.4 µM [falling, partial curve]"}, {"measurement": "AC50", "setting": "[2]", "result": "14.6 µM [rising, partial curve, poor fit]"}]}
{"smiles": "Cc1ccc(Cl)cc1N1CCN(S(=O)(=O)c2c(C)[nH]c(=O)[nH]c2=O)CC1", "values": [{"measurement": "AC50", "setting": "[1]", "result": "0.355 µM [falling, full curve]"}]}
{"smiles": "CCN(CC)c1ccc(C(=O)Nc2cccc(F)c2)cc1", "values": [{"measurement": "AC50", "setting": "[1]", "result": "29.1 µM [falling, single point]"}]}
{"smiles": "COc1nc(NCCO)nc(Nc2ccc([N+](=O)[O-])cc2)n1", "values": [{"measurement": "AC50", "setting": "[1]", "result": "7.31 µM [rising, partial curve, poor fit]"}]}
{"smiles": "Cn1c(C(=O)NCCCN2CCN(c3cccc(Cl)c3)CC2)cc2c(=O)n(C)c3ccccc3c21", "values": [{"measurement": "AC50", "setting": "[1]", "result": "2.06 µM [falling, partial curve, poor fit]"}]}
{"smiles": "CC1(C)CC(=O)c2sc(NC(=O)c3cccs3)nc2C1", "values": [{"measurement": "AC50", "setting": "[1]", "result": "2.31 µM [falling, full curve]"}]}
{"smiles": "Cc1ccc(C)c(NC(=O)CN(C)C(=O)c2oc3c(Cl)cccc3c2C)c1", "values": [{"measurement": "AC50", "setting": "[1]", "result": "5.17 µM [rising, full curve]"}]}
{"smiles": "Cc1ccc(NC(=O)Cc2ccc3c(c2)CCCC3)cc1C", "values": [{"measurement": "AC50", "setting": "[1]", "result": "25.9 µM [falling, single point]"}]}
{"smiles": "Cc1ccccc1OCCOc1cccc(/C=N/NC(=O)Cc2nnc(N)s2)c1", "values": [{"measurement": "AC50", "setting": "[1]", "result": "35.5 µM [falling, single point]"}]}
{"smiles": "NC(=S)NN=C1C2CC3CC(C2)CC1C3", "values": [{"measurement": "AC50", "setting": "[2]", "result": "22.4 µM [falling, single point]"}]}
{"smiles": "CCCCn1c(CN2CCN(C(=O)OCC)CC2)nc2c1c(=O)n(C)c(=O)n2C", "values": [{"measurement": "AC50", "setting": "[1]", "result": "0.794 µM [falling, full curve, poor fit]"}]}
{"smiles": "COc1ccc(-c2cc(C(F)(F)F)nc(S(C)(=O)=O)n2)cc1OC", "values": [{"measurement": "AC50", "setting": "[1]", "result": "2.82 µM [falling, full curve]"}]}
{"smiles": "Cc1cccc2sc(N(Cc3cccnc3)C(=O)CCS(=O)(=O)c3ccccc3)nc12", "values": [{"measurement": "AC50", "setting": "[1]", "result": "35.5 µM [falling, single point]"}]}
{"smiles": "S=C(NCc1ccc2c(c1)OCO2)Nc1ccc(-c2nc3ccccc3[nH]2)cc1", "values": [{"measurement": "AC50", "setting": "[1]", "result": "29.1 µM [falling, single point]"}]}
{"smiles": "COc1cccc(NC(=O)c2oc3ccccc3c2NC(C)=O)c1", "values": [{"measurement": "AC50", "setting": "[1]", "result": "11.2 µM [falling, partial curve, poor fit]"}]}
{"smiles": "Cc1ccc(-c2nnc(-c3ccccc3)c(N3CCOCC3)n2)cc1", "values": [{"measurement": "AC50", "setting": "[1]", "result": "12.6 µM [falling, single point]"}]}
{"smiles": "CSc1ccc(/C=N/NC(=O)c2cccc(Cl)c2)cc1", "values": [{"measurement": "AC50", "setting": "[1]", "result": "20.6 µM [falling, partial curve]"}]}
{"smiles": "Cc1ccccc1-c1nc(CS(=O)CC(=O)NCCCN(C)c2ccccc2)c(C)o1", "note": "(stereo not given)", "values": [{"measurement": "AC50", "setting": "[1]", "result": "35.5 µM [falling, single point]"}]}
{"smiles": "Cc1cc(OCC[N+]2(C)CCCCC2)nc2ccccc12", "values": [{"measurement": "AC50", "setting": "[1]", "result": "0.291 µM [falling, full curve, poor fit]"}]}
{"smiles": "COc1ccccc1NC(=O)CSc1nn2c(=O)c(C)nnc2s1", "values": [{"measurement": "AC50", "setting": "[1]", "result": "35.5 µM [falling, single point]"}]}
{"smiles": "CNc1ncc(C(=O)c2ccc(-c3ccccc3)cc2)s1", "values": [{"measurement": "AC50", "setting": "[1]", "result": "5.62 µM [falling, partial curve]"}]}
{"smiles": "CC(=O)Nc1ccc(S(=O)(=O)N2CCN(S(=O)(=O)N3CCCCC3)CC2)cc1", "values": [{"measurement": "AC50", "setting": "[1]", "result": "0.398 µM [falling, partial curve, poor fit]"}]}
